# Assay results: the supplement of paper PMC3334620
# In all, about 33,000 sequences were measured (“E-score (-0.5 to 0.5)”: median about -0.0034, highest 2% from about 0.25 on). The list shows a part of the results.
# Target: T1, Yap3 (UniProt P38749)
# T1 sequence: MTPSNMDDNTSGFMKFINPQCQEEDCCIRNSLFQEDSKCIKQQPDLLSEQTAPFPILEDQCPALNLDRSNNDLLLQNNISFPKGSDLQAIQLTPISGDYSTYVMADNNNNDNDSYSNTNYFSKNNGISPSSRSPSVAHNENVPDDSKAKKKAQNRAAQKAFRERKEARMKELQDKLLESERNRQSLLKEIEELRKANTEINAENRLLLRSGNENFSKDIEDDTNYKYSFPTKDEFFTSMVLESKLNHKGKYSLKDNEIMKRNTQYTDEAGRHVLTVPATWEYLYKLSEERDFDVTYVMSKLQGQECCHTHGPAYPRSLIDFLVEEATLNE
# Test: PBM E-score (8-mer binding enrichment) (E-score (-0.5 to 0.5)); higher = stronger / more preferred TF binding
# Conditions: protein concentration: 100 nM; construct: GST-full length
# Protocol: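 Universal 'all 10-mer' protein binding microarrays (Agilent AMADID 015681) probed with GST-tagged S. cerevisiae TFs (full-length or DBD) made by in vitro transcription/translation (PURExpress), about 100-200 nM. Bound TF was detected with fluorescent anti-GST. Each ungapped 8-mer (which stands for itself and its reverse complement) is scored by the PBM enrichment score (E-score), a modified Wilcoxon-Mann-Whitney statistic from -0.5 to +0.5, computed with the Universal PBM Analysis Suite. Scale: above 0.35 generally sequence-specific binding.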
row,Sequence,PBM E-score
1,CCTTGTTA,-0.00354
2,ATACCATC,0.119
3,GCGGAAAC,-0.153
4,ATAATCGG,0.209
5,GAGCGATA,-0.0584
6,ACAGTGCG,-0.0324
7,ACTCCTCG,0.0333
8,CTAGTTGC,0.0394
9,GCGCACAA,0.141
10,AAGAATAT,0.0717
11,GACTACAA,-0.0468
12,ACGAGCGA,0.0274
13,ATCTCGAC,-0.0052
14,CGCAGATA,-0.0505
15,GAATGGCA,-0.0644
16,CAGGAGGA,-0.292
17,GTATCTAA,0.18
18,TCCGTACA,0.149
19,TAACGAAA,0.211
20,AGGCAGTA,-0.121
21,GGCAACAC,0.0316
22,GAACATAC,0.122
23,ACAAAAAC,0.143
24,CCCAATCG,0.0535
25,ACCAGCGT,-0.181

# Given with tabs: entries from further up
row	Sequence	PBM E-score
5	GAGCGATA	-0.0584
6	ACAGTGCG	-0.0324
7	ACTCCTCG	0.0333

# Further records follow:

row,Sequence,PBM E-score
1,CACAAGCA,-0.111
2,GGGCAACA,0.0486
3,ATTCAAGG,-0.0344
4,AACTGAGA,0.018
5,GATGATAA,0.207
6,CCCCCGAG,-0.315
7,AGGCCCGG,-0.402
8,AGAAGTTA,0.0328
9,ATCATGGG,-0.0421
10,AGCGTACA,-0.0567
11,ATCACGCG,0.234
12,AAGGGCCC,-0.131
13,ATACTAGG,0.0668
14,AAAAGGTG,0.0429
15,GGGGTTAA,-0.0228
16,CGGACGGA,-0.113
17,AGTGACGA,-0.0265
18,AGAGACAT,0.076
19,AGAGTTTA,0.106
20,CACGTCCG,-0.0921
21,GATCATCC,-0.105
22,CCCGCACC,-0.15
23,ACAATTAG,-0.0417
24,AACCGGAT,0.13
25,ATGTTCCG,-0.00499

row,Sequence,PBM E-score
1,AGCTGGAT,-0.0595
2,CTTATACA,-0.0253
3,CTGATTTA,0.14
4,ACAAGGCC,-0.187
5,CTCAAATA,0.0822
6,GGTAAGAC,-0.109
7,GTAGCACA,-0.0421
8,GAGTGTAC,-0.0383
9,ACCAATCC,0.0692
10,CCTTGAAC,-0.0978
11,GACACTGA,0.0328
12,AAACTGGT,0.102
13,CTAATAAC,0.15
14,AGTATAGG,0.0414
15,CATGCAAC,0.089
16,AAAAGACC,-0.0384
17,CCAGCGAC,-0.0681
18,CTTGCATC,-0.118
19,ATGCCGCC,-0.0943
20,CAAGGCTA,-0.014
21,ACATCCTA,0.0583
22,AGCGACTA,-0.0433
23,CTCGCGCC,-0.102
24,AATGCGTA,0.0711
25,GTGCGTGA,-0.0199

# Single values from the results shown.
# Entry of CTCGCGCC under PBM E-score: -0.102
# Entry of AAAAGACC under PBM E-score: -0.0384
# Entry of CCAGCGAC under PBM E-score: -0.0681

# Additional entries

row,Sequence,PBM E-score
1,ACTCTTTA,-0.0662
2,ACCCAGGT,-0.28
3,AGGTTAGG,0.148
4,AACAAAAA,0.307
5,TAGCACCA,0.0413
6,GCGAGTCA,-0.0691
7,CGCAACTC,0.0614
8,ACTGCGTC,-0.102
9,ACTCGTTC,-0.0576
10,ATCGTCGG,-0.0703
11,CTTGCGAA,0.188
12,GAACGCAA,0.0614
13,ACGGAAAT,0.323
14,CACTGTGG,-0.106
15,TAGACTAA,-0.0379
16,AGGAGATG,0.0415
17,GCACATCA,-0.0379
18,GCAGCAGC,-0.149
19,ACGACGCG,-0.0116
20,ACGTACAG,0.0953
21,ATTCAATC,0.0991
22,GTTCCAGA,0.0899
23,CGTTGATA,0.204
24,GGGCCAAA,-0.00772
25,ACACCTGG,-0.152

row,Sequence,PBM E-score
1,CGATGGGA,-0.0412
2,CCAGGGAA,-0.188
3,GTGTCACA,0.114
4,ACGTTACC,-0.0647
5,TGGGTTAA,-0.0447
6,GGTCAATA,0.208
7,ATGGTTCG,0.145
8,GAAGGTCC,-0.172
9,GTTCTCGA,-0.0521
10,AGGACGTG,-0.15
11,AATTAATT,0.211
12,CTAGTGTC,0.00568
13,ACGTGAGA,0.011
14,CTGGATAA,0.0474
15,GCTTTTTA,0.102
16,ACTTATGA,0.18
17,AGAGAGTG,-0.114
18,ACCTTGGA,-0.166
19,AAAGGTCC,-0.0315
20,ATCCGGGC,-0.209
21,AATCCCCG,-0.111
22,GTTCGATA,0.155
23,TAAGTCGA,-0.00297
24,AGGCCCCC,-0.415
25,AACCGACG,0.0843

row,Sequence,PBM E-score
1,AAACCATC,0.107
2,CCCCAATA,-0.0168
3,GAGTTGGC,-0.0517
4,AGTAAGGC,0.12
5,CCGGAAGA,-0.0592
6,ACCACGCA,-0.168
7,CATACGCC,-0.00203
8,AGTGACTC,-0.109
9,AGTTCTAA,-0.0287
10,ATCAGTGC,-0.034
11,CTGAGAGA,-0.0731
12,ATGAAGTG,0.0583
13,GTAACCGA,0.0998
14,ACGGGTAG,-0.0943
15,CGACAGGC,-0.157
16,ACCTCCAG,-0.208
17,GTAATTCA,0.177
18,GCCATGAC,-0.0475
19,AAGCTATC,0.072
20,AAAAGCGT,0.0246
21,CAGGAACG,0.00304
22,ATGTACGA,0.156
23,CATATGCC,0.105
24,GCGGATCA,-0.145
25,TCTCACCA,0.0245

row,Sequence,PBM E-score
1,AGATAACT,0.0265
2,ATTTGCCA,-0.0197
3,AACACGCG,0.0861
4,AGCGTAAA,0.0656
5,ATGCTAAA,0.062
6,CAAAAATC,0.051
7,CCACAGCA,-0.113
8,ACCGCAAT,0.115
9,CATCTTGC,0.0712
10,AGCGCTCC,-0.032
11,GGAGCACA,0.0175
12,ATGGTGTA,0.139
13,GGTGCGTA,-0.15
14,AAAATTTG,0.0972
15,AGGATTCA,-0.00455
16,TACTGTCA,0.0947
17,CAACAATA,0.159
18,ACCCCCCT,-0.454
19,CGCCTAAC,0.0468
20,CTGGAGTC,-0.228
21,CTCCAAGA,-0.12
22,CTACCGAA,-0.146
